Test results taken from PubChem BioAssay AID504834 (National Center for Advancing Translational Sciences (NCATS), 2011).
Hit rate of the full screen: of about 320,000 compounds, about 22,000 (6.9%) were called active. Inconclusive means that the source gave no clear call. Such entries were picked first, then a sample of the others. Calls follow the shape of the dose curve; as a rule, active = well fitted inhibition curve with a large enough effect; inconclusive = small, poorly fitted or top-dose-only effect, or another doubt; inactive = no such curve, though single readings can be large or run the other way. Potencies beside an inconclusive call are fits to weak or partial responses and may not hold up.
% is scaled to controls: 0 for no effect and ±100 for the full control effect; potency is read from the fitted curve at half-maximal effect.

Experiment: Primary qHTS for delayed death inhibitors of the malarial parasite plastid, 96 hour incubation
Settings: P. falciparum luciferase reporter growth; series mostly up to 28.7 µM; activity change, negative = inhibition: at the top concentration
Procedure, shortened: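 P. falciparum expressing integrated firefly luciferase, in erythrocytes at 2% hematocrit, 0.05% parasitemia, incubated with compounds 96 h at 37 C, 5% CO2. Growth inhibition read as loss of luminescence; two-generation exposure targets delayed-death apicoplast inhibitors.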
With `Cc1ccc(C(=O)NCCNc2ccc(Cl)cc2[N+](=O)[O-])o1` the Potency was inconclusive: 8.28 µM [inhibitor, partial curve, poor fit]. In the case of `O=C(c1cccc(F)c1)N1CCN(Cc2cccc(Br)c2)CC1`, the Potency is reported as inconclusive: 8.28 µM [inhibitor, partial curve, poor fit]. With `O=C(CSc1nnc(CNC(=O)c2ccccc2)o1)NCc1ccccc1` the Potency was inconclusive: 9.28 µM [inhibitor, partial curve, poor fit]. For `Cc1ccc(S(=O)(=O)N/N=C/c2ccc(OCC(=O)N3CCOCC3)cc2)cc1`, the “activity change, negative = inhibition” value was inactive: -23.4%. For `CCCSc1nc(N2CCCC2)c2c(c1C#N)CC(C)(C)OC2`, the Potency was inconclusive: 18.5 µM [inhibitor, single point]. In the case of `O=C(CSc1cccc[n+]1[O-])Nc1cc(S(=O)(=O)N2CCOCC2)ccc1Cl`, the “activity change, negative = inhibition” value is reported as inactive: 0%. For `COc1ccc(C(=O)NCCc2c[nH]c3ccccc23)cc1[N+](=O)[O-]`, the Potency was active: 13.1 µM. For `CC(=O)Nc1c(C(=O)c2ccccc2)oc2ccccc12`, the Potency was inconclusive: 16.5 µM [inhibitor, single point]. For `CC1CC(C)(C)NC(=S)N1CCCC(=O)NCCc1ccc(Cl)cc1` (centres undefined), the Potency was inconclusive: 18.5 µM [inhibitor, single point]. With `COc1cccc(NC(=O)Cn2c(CCC(=O)O)ccc2-c2cccs2)c1` the “activity change, negative = inhibition” value was inactive: 10.3%. With `COCCCNc1nc2c(c(=O)n(C)c(=O)n2C)n1Cc1cccc(OC)c1` the Potency was inconclusive: 18.5 µM [inhibitor, single point]. With `COc1ccc(/C=N/NC(=O)c2nnn(-c3nonc3N)c2-c2cccs2)c(OC)c1` the Potency was inconclusive: 18.5 µM [inhibitor, single point]. In the case of `N/C(Cc1ccc(Cl)cc1Cl)=N\OC(=O)Cc1ccccc1`, the “activity change, negative = inhibition” value is reported as inactive: -19.2%. For `Cc1nn(-c2ccc([N+](=O)[O-])cc2)c2c1C(c1cccc(Br)c1)N1C(=N2)C(=O)Nc2ccccc21` (centres undefined), the Potency was active: 1.04 µM. In the case of `O=C(CSc1nc2cc(C(=O)O)ccc2c(=O)n1-c1ccc(F)cc1)Nc1ccc(F)c(F)c1F`, the Potency is reported as inconclusive: 9.28 µM [inhibitor, partial curve, poor fit]. With `COc1ccc(CNC(=O)COC(=O)c2ccc3c(c2)OCCO3)cc1` the “activity change, negative = inhibition” value was inactive: 5.59%. For `CC(=O)Nc1ccc2nc(C3CCCCC3)[nH]c2c1`, the Potency was inconclusive: 18.5 µM [inhibitor, single point]. With `O=C(Nc1nccs1)c1cccc2ccccc12` the Potency was inconclusive: 18.5 µM [inhibitor, single point]. For `O=C(Nc1cccc(Cl)c1N1CCCC1)c1cc2ccccc2o1`, the Potency was active: 1.31 µM. In the case of `CCOc1cc(N2CCOCC2)c(OCC)cc1NC(=O)c1cc(S(=O)(=O)N2CCOCC2)ccc1Cl`, the Potency is reported as inconclusive: 13.1 µM [inhibitor, partial curve]. In the case of `COc1cc2cncc(Cc3ccc(Cl)cc3)c2cc1OC`, the Potency is reported as inconclusive: 2.94 µM [inhibitor, partial curve, poor fit]. In the case of `Cc1cc(NC(=O)CSc2nc3sc(C)c(C)c3c(=O)n2C2CCCC2)no1`, the Potency is reported as inconclusive: 9.28 µM [inhibitor, partial curve, poor fit]. In the case of `O=C(Cc1ccc(-n2c(=O)[nH]c3ccccc3c2=O)cc1)N1CCN(c2cccc(Cl)c2)CC1`, the “activity change, negative = inhibition” value is reported as inactive: 6.21%. For `CCOc1ccc(NC(=O)CN2C(=O)S/C(=C/c3cccn3C)C2=O)cc1`, the Potency was inconclusive: 0.37 µM [inhibitor, full curve, poor fit]. In the case of `CCOc1ccccc1Oc1cn[nH]c1-c1ccc(OCC(=O)NN)cc1O`, the Potency is reported as active: 13.1 µM. With `O=C(CN1CCC(N2CCCCC2)CC1)N1CCCc2ccccc21` the Potency was inconclusive: 11.7 µM [inhibitor, single point]. For `Cc1ccccc1OCCOC(=O)c1c(-c2ccccc2)noc1C`, the Potency was inconclusive: 18.5 µM [inhibitor, single point]. In the case of `COc1ccccc1N1CCN(c2cc(N3CCCC3)nc(C)n2)CC1`, the “activity change, negative = inhibition” value is reported as inactive: 6.08%. In the case of `COc1cc(OC)c2c(c1O)OC(c1ccccc1)CC2=O` (centres undefined), the “activity change, negative = inhibition” value is reported as inactive: 9.28%. For `O=S1(=O)CCOC[C@H](CC2CCCCC2)N1Cc1ccccc1Br`, the “activity change, negative = inhibition” value was inactive: 0%. For `CCC(=O)c1ccc(OCCSc2ncccn2)cc1`, the Potency was inconclusive: 18.5 µM [inhibitor, single point]. With `CC(=O)c1c(O)cc(C)n(Nc2nc(C)cc(C)n2)c1=O` the Potency was inconclusive: 18.5 µM [inhibitor, single point]. In the case of `CC(=O)OC(C)=O`, the Potency is reported as inconclusive: 5.86 µM [inhibitor, partial curve, poor fit]. With `CCOc1ccc2c(c1)C(C)=CC(C)(C)N2S(=O)(=O)c1ccc(F)cc1` the Potency was inconclusive: 18.5 µM [inhibitor, single point]. In the case of `COc1cccc(C(=O)Nc2c3c(nc4c2CCC4)CCCC3)c1`, the Potency is reported as inconclusive: 18.5 µM [inhibitor, partial curve, poor fit]. For `O=C(CCCN1C(=O)/C(=C/c2cccs2)SC1=S)Nc1cccnc1`, the “activity change, negative = inhibition” value was inactive: 3.15%. For `CC(C)CCNC(=O)NC(=O)COC(=O)/C=C/c1cc(Br)ccc1F`, the “activity change, negative = inhibition” value was inactive: 0%. For `Cc1ccc2[nH]c(=O)c(CN(CC3COCCO3)C(=O)Nc3ccccc3C)cc2c1` (centres undefined), the Potency was active: 0.465 µM. For `Fc1ccc2[nH]c3c(Cl)ncnc3c2c1`, the “activity change, negative = inhibition” value was inactive: -37%. With `CC(/C=N/Nc1nnc(C)c(=O)[nH]1)=C\c1ccccc1` the “activity change, negative = inhibition” value was inactive: 117%. For `Cc1ccc(C(=O)Nc2nc(-c3ccccn3)cs2)s1`, the Potency was inconclusive: 1.17 µM [inhibitor, full curve, poor fit]. With `COc1ccccc1N1CCN(C(=O)C2CCN(S(=O)(=O)c3ccccc3)CC2)CC1` the Potency was inconclusive: 18.5 µM [inhibitor, partial curve, poor fit]. For `CCc1noc(C)c1C(=O)OCC(=O)c1ccc(OC)c(OC)c1`, the Potency was inconclusive: 0.0828 µM [inhibitor, full curve, poor fit]. With `CCOC(=O)c1cc(NC(=O)COc2ccc([N+](=O)[O-])cc2)cc(C(=O)OCC)c1` the Potency was inconclusive: 7.38 µM [inhibitor, single point]. With `CSc1nc(N2CCN(c3ccccc3)CC2)cc(N2CCN(c3ccccc3)CC2)n1` the Potency was inconclusive: 11.7 µM [inhibitor, partial curve, poor fit]. In the case of `CC(C)(C)C1CC=C2C(C#N)=C(N)C(C#N)(C#N)C(c3cccs3)C2C1` (centres undefined), the Potency is reported as inconclusive: 10.4 µM [inhibitor, partial curve, poor fit]. In the case of `Cc1ccc(N2C(=O)C3N=NN(CC(=O)N4N=C(c5cccc6ccccc56)CC4c4ccccc4)C3C2=O)cc1` (centres undefined), the Potency is reported as inconclusive: 18.5 µM [inhibitor, single point]. With `O=C(CSc1cccc[n+]1[O-])CSc1cccc[n+]1[O-]` the Potency was active: 0.185 µM. With `CCCC(=O)N1CCN(c2nc3ccccc3s2)CC1` the “activity change, negative = inhibition” value was inactive: 268%. In the case of `CCCc1nn2c(=O)cc(CSCC(=O)Nc3cccc(C)c3)nc2s1`, the Potency is reported as inconclusive: 10.4 µM [inhibitor, partial curve, poor fit]. For `CCOC(=O)[C@H]1[C@H]2COc3ccc(C)cc3[C@@H]2N2C(=O)CN(Cc3ccc(F)cc3)C(=O)[C@@]12C`, the Potency was inconclusive: 8.28 µM [inhibitor, partial curve]. For `C=Cn1cc[n+](CC(=O)c2ccc(Cl)cc2)c1`, the Potency was inconclusive: 18.5 µM [inhibitor, single point]. In the case of `CCOc1ccccc1N1CC(C(=O)N2CCOCC2)CC1=O` (centres undefined), the “activity change, negative = inhibition” value is reported as inactive: -13.7%. In the case of `Cc1noc(C)c1C(=O)Nc1nc(-c2cccs2)cs1`, the “activity change, negative = inhibition” value is reported as inactive: 107%. With `COc1ccc(C(CNC(=O)COc2ccccc2C)N2CCCC2)cc1` (centres undefined) the Potency was inconclusive: 10.4 µM [inhibitor, single point]. With `CC(/C=N/NC(=O)c1cccs1)=C\c1ccccc1` the Potency was inconclusive: 7.38 µM [inhibitor, partial curve, poor fit]. In the case of `Cc1cccc(S(=O)Cc2ccc(C(=O)NC3CCN(Cc4ccccc4)CC3)o2)c1` (centres undefined), the Potency is reported as inconclusive: 18.5 µM [inhibitor, single point]. With `COc1cc(OC)cc(C2=NCCN2)c1` the “activity change, negative = inhibition” value was inactive: 4.86%. With `CCCn1c(CNS(=O)(=O)c2ccc(C)cc2)nc2ccccc21` the Potency was inconclusive: 7.38 µM [inhibitor, partial curve]. In the case of `O=C(NCC1CCCO1)C(c1ccc(F)cc1)N(C(=O)Cn1nnc(-c2ccc(F)cc2)n1)c1cccc(O)c1` (centres undefined), the “activity change, negative = inhibition” value is reported as inactive: 49.1%. With `CCN(C(=O)CSC1=Nc2ccccc2C2CC=NN12)C1CCS(=O)(=O)C1` (centres undefined) the Potency was inconclusive: 14.7 µM [inhibitor, single point]. With `Cc1cccc(S(=O)(=O)Nc2nc3ccccc3nc2Nc2ccc3c(c2)OCO3)c1` the Potency was inconclusive: 18.5 µM [inhibitor, single point]. With `COc1ccc(C(C)(C)C)cc1NC(=O)c1cc(S(=O)(=O)N(C)C)ccc1N1CCCC1` the Potency was active: 9.28 µM. For `O=C(Nc1ccc(N2CCCC2)cc1)c1cc(Cl)ccc1Cl`, the Potency was inconclusive: 2.33 µM [inhibitor, partial curve, poor fit]. In the case of `Cn1cccc1CC(=O)N/N=C/C(Cl)=C/c1ccccc1`, the Potency is reported as inconclusive: 5.86 µM [inhibitor, partial curve, poor fit]. For `COc1ccc(C(CNC(=O)c2cccc(S(=O)(=O)N3CCCC(C)C3)c2)N(C)C)cc1` (centres undefined), the Potency was inconclusive: 18.5 µM [inhibitor, single point]. In the case of `CC(/C=N/N1CCN(Cc2ccccc2)CC1)=C\c1ccccc1`, the Potency is reported as inconclusive: 10.4 µM [inhibitor, partial curve, poor fit]. In the case of `COc1ccc(NS(=O)(=O)c2cccs2)cc1S(=O)(=O)N1CCCCC1`, the “activity change, negative = inhibition” value is reported as inactive: 0.924%. With `O=C(COc1ccccc1Cl)NCC(c1cccs1)N1CCOCC1` (centres undefined) the “activity change, negative = inhibition” value was inactive: 1.11%.
